Results reported in PubChem BioAssay AID485314 (National Center for Advancing Translational Sciences (NCATS), 2010).
Out of some 340,000 compounds screened, about 4,500 (1.3%) were called active. The shares of active, inactive and inconclusive entries below differ from those in the screen. Calls follow the shape of the dose curve; as a rule, active = well fitted inhibition curve with a large enough effect; inconclusive = small, poorly fitted or top-dose-only effect, or another doubt; inactive = no such curve, though single readings can be large or run the other way. Potencies beside an inconclusive call are fits to weak or partial responses and may not hold up.

target: DNA polymerase beta (Homo sapiens) (UniProt P06746); assay: qHTS Assay for Inhibitors of DNA Polymerase Beta; conditions: Pol beta primer extension/strand displacement, fluorescence kinetic; activity change, negative = inhibition: at 114 µM (top of the series)
Summary of the method: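 Homogeneous kinetic assay of primer extension and strand displacement by 10 nM Pol beta, preincubated 15 min at room temperature with compound before 50 nM substrate (final) was added. Read at 0 and 10 min; four-parameter Hill fit.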
% is scaled to controls: 0 for no effect and ±100 for the full control effect; potency is read from the fitted curve at half-maximal effect.

Potency, inconclusive:
CC(C)Oc1ccc(CNC(=O)Nc2ccc3c(c2)N(C)C(=O)c2ccccc2S3)cc1 79.4 µM [inhibitor, single point], CCN(CC)C(=O)COc1ccc2oc(-c3ccco3)cc(=O)c2c1 17.8 µM [inhibitor, full curve], CCOc1ccc(C2C3=C(Nc4nc(N)[nH]c(=O)c42)c2ccccc2C3=O)cc1 (stereo not drawn) 50.1 µM [inhibitor, single point], CCn1c(Cn2nnc(-c3ccccc3)n2)nnc1SCc1ccc(Cl)c(Cl)c1 1.78 µM [inhibitor, full curve], COc1ccccc1NC(=O)CN1C(=O)CC(c2ccc(C)c(C)c2)=Nc2ccccc21 100 µM [inhibitor, single point], COc1ccc(CCNC(=O)c2ccc(N3CCCCS3(=O)=O)cc2)cc1OC 0.794 µM [inhibitor, partial curve], O=C1/C(=C\c2ccc(O)cc2)SC(=S)N1/N=C/c1ccc(O)cc1 89.1 µM [inhibitor, single point], Cc1cccc(C)c1NC(=S)NC(C)(C)CO 7.94 µM [inhibitor, full curve, poor fit], O=C(N/N=C/c1ccco1)c1cc(-c2ccccc2)n[nH]1 17.8 µM [inhibitor, single point], CCC(Sc1nc2ccccc2c2nc(CCc3c(C)n[nH]c3C)nn12)C(=O)Nc1ccc(OC)cc1 (stereo not drawn) 8.91 µM [inhibitor, full curve, poor fit], COc1ccc(Cl)cc1NC(=O)CSc1c2c(nc3ccccc13)CCC2 89.1 µM [inhibitor, single point], O=C(Nc1ccc(-c2cc3ccccc3oc2=O)c(Cl)c1)c1cccnc1 89.1 µM [inhibitor, single point], CNCc1ccccc1Sc1ccc(OC)cc1 31.6 µM [inhibitor, full curve], CC(C)(C)OC(=O)[C@H](Cc1ccccc1)NC(=O)c1nc[nH]c1C(=O)N[C@@H](Cc1ccccc1)C(=O)OC(C)(C)C 15.8 µM [inhibitor, full curve, poor fit], CCOc1cc(N2CCOCC2)c(OCC)cc1NC(=O)c1cc(-c2ccco2)nc2ccccc12 11.2 µM [inhibitor, partial curve], O=C(Nc1ccnn1C1CCN(C(=O)c2cc(Cl)ccc2F)CC1)C1CCOC1 (stereo not drawn) 79.4 µM [inhibitor, single point], Cc1ccc(CNC(=O)c2nnc(Cc3cccc(F)c3)o2)cc1 100 µM [inhibitor, single point], O=C(CSc1nccc(=O)[nH]1)c1ccco1 15.8 µM [inhibitor, partial curve, poor fit], Cc1cc(C)c2c(=O)[nH]c(SCC(=O)c3ccc(C(C)C)cc3)nc2n1 22.4 µM [inhibitor, partial curve, poor fit], CCC(C(=O)NC1CCCC1)N(C(=O)Cn1nnc(-c2ccc(OC)c(OC)c2)n1)c1cccc(O)c1 (stereo not drawn) 20 µM [inhibitor, full curve, poor fit], COc1ccc(NC(=O)/C(C#N)=C\C=C\c2ccco2)cc1 31.6 µM [inhibitor, single point], CCCOc1ccc(-c2nnn(CC(=O)Nc3cccc(C(=O)OC)c3)n2)cc1 89.1 µM [inhibitor, single point], Cc1cccc2sc(NC(=O)c3cc(S(=O)(=O)N(C)C)ccc3N3CCCC3)nc12 100 µM [inhibitor, single point], Cc1sc2cc3c(c(C(=O)c4ccccc4)[n+]2c1C)-c1cccc2cccc-3c12 70.8 µM [inhibitor, partial curve, poor fit], COc1cc(OC)c(NC(=O)c2sc3ncn(CC(=O)N4CCOCC4)c(=O)c3c2C)cc1Cl 0.282 µM [inhibitor, full curve], Cc1ccc(-c2nnc(-c3ccccc3S(=O)(=O)Cc3ccc(Cl)cc3)o2)cc1 70.8 µM [inhibitor, single point], O=C(Cn1ccc2ccccc2c1=O)Nc1ccc2c(c1)OCO2 31.6 µM [inhibitor, partial curve, poor fit], CC(=O)NC12CC3CC(C1)CC(C(=O)OCC(=O)Nc1ncc(Cl)cc1Cl)(C3)C2 79.4 µM [inhibitor, partial curve], CC(C)c1cc(C(=O)N/N=C/c2ccoc2)cs1 44.7 µM [inhibitor, partial curve, poor fit], CCOC(=O)C1=C(CNCc2ccc(C)cc2)NC(=O)NC1c1ccc(OC)cc1 (stereo not drawn) 7.94 µM [inhibitor, partial curve], CCC(=O)N1CCc2cc(CNC(=O)C(CC)c3ccccc3)ccc21 (stereo not drawn) 89.1 µM [inhibitor, single point], CCN1C(=O)C2(C(C#N)=C(N)Oc3n[nH]c(COC)c32)c2ccccc21 (stereo not drawn) 89.1 µM [inhibitor, single point], Cc1nn(-c2ccccc2)c2sc(C(=O)OCc3nnc(-c4ccccc4)o3)cc12 89.1 µM [inhibitor, single point], O=C(CSc1ncnc2sc3c(c12)CCCCC3)NCc1ccco1 20 µM [inhibitor, full curve], Cc1cc(C(=O)N/N=C/c2ccc(-c3cccc(Cl)c3)o2)n[nH]1 56.2 µM [inhibitor, partial curve, poor fit], COc1ccc(OC)c2sc(NC(=O)c3cccc(N4C(=O)CCC4=O)c3)nc12 39.8 µM [inhibitor, partial curve], Cc1ccc(CNC(=O)Nc2ccc(OC(F)(F)F)cc2)n1C 35.5 µM [inhibitor, single point], O=C(Nc1ccn(C2CC(OC(=O)c3ccccc3)C(CO)O2)c(=O)n1)c1ccccc1 (stereo not drawn) 28.2 µM [inhibitor, full curve], COC(=O)c1cc(-c2c(C)nn(-c3ccccc3)c2C)n[nH]1 89.1 µM [inhibitor, single point], CCc1cc2c(cc3c(=O)n(CC(=O)NCCc4ccc(OC)c(OC)c4)ncn32)s1 25.1 µM [inhibitor, full curve], Cc1cccc(-c2nn3c(=O)cc(CN4CCN(S(=O)(=O)c5ccc(Cl)cc5)CC4)nc3s2)c1 22.4 µM [inhibitor, single point]

Potency, active:
COc1cc(/C=C2\CC/C(=C\c3ccc(OCCO)c(OC)c3)C2=O)ccc1OCCO 2.51 µM, O=C(O)c1ccccc1N=Nc1c(O)[nH]c2ccc([N+](=O)[O-])cc12 50.1 µM, C[n+]1cccc2cccc([O-])c21 28.2 µM, COC(=O)c1c(C)sc(-c2c(-c3ccc4c(c3)OCCO4)[nH]c3[nH]c(=O)[nH]c(=O)c23)c1O 39.8 µM, COC(=O)c1ccccc1NC(=O)CSc1nc(N)cc(=O)[nH]1 17.8 µM, O=C1ON=C(c2ccccc2)/C1=C/c1ccco1 25.1 µM, Cn1ccnc1SCC(=O)Nc1sccc1C#N 31.6 µM, CCOC(=O)C1CCN(c2nc(N)c3c(N)nc(SCC(=O)O)cc3c2C#N)CC1 28.2 µM, Oc1ccc(N=Nc2ccccc2-c2nn[nH]n2)c(O)c1 31.6 µM

Potency, inactive:
O=C(CCn1ccc2cc(S(=O)(=O)N3CCCC3)ccc21)NCc1cccc(F)c1

Activity change, negative = inhibition, inactive:
Cc1cccc(Cn2c(SCc3ccc(C(=O)N4CCC(C)CC4)cc3)nc3ccncc32)c1 19.7%, N#CC1=C(N)OC2=C(C(=O)CC(c3ccccc3)C2)C1c1ccc2c(c1)OCO2 (stereo not drawn) 1.87%, Cc1[nH]c2ccccc2c1C(=O)C(=O)NCCc1c[nH]c2ccccc12 -1.4%, COc1ccccc1CCNC(=O)Cc1c(C)c2cc3c(C(C)(C)C)coc3c(C)c2oc1=O 3.26%, CCSC1=C(C#N)C(c2ccc(C)o2)CC(=O)N1 (stereo not drawn) 40.3%, O=C(OCC1CCCO1)c1ccc2c(c1)N(Cc1cccc(Cl)c1)C(=O)c1ccccc1S2(=O)=O (stereo not drawn) 0.755%, COc1ccc(-c2cc3nc[nH]c(=O)c3s2)cc1 -11.8%, O=C(Nc1nnc(N2CCCCCC2)s1)Nc1ccccc1C(F)(F)F -0.874%, Cc1cccnc1NC(=O)c1ccc(OCc2c(C)noc2C)cc1 0.483%, N=C1S/C(=C\c2ccccc2F)C(=O)N1c1ccc(F)cc1 32.6%, O=C(CSc1nnc(SCc2ccc(Cl)cc2)s1)N/N=C/c1ccc(Cl)cc1Cl 0.601%, Cc1c(NC(=O)c2ccc(Cl)cc2)cc(C(C)C)c(O)c1S(=O)(=O)c1ccc(Cl)cc1 -11.1%, CN(/N=C/c1ccc(N(C)C)cc1)C1=NS(=O)(=O)c2ccccc21 28%, CCCCn1c(SCC(=O)N(C)C)nnc1-c1ccncc1 8.72%

Activity change, negative = inhibition, inconclusive:
CC(C)OCC(O)CN1CCN(CCN2C(=O)c3cccc4cccc(c34)C2=O)CC1 (stereo not drawn) -33.2% [inhibitor], Cc1ccc(S(=O)(=O)n2nc(-n3c(C)ccc3C)c3c(F)cccc32)c2ccccc12 -38.2% [inhibitor], Cc1ccc(N2C(=O)N(CC(=O)Nc3ccccc3C)C(=O)C2C)cc1 (stereo not drawn) -32.7% [inhibitor]
